Test results from article PMC11226087.
Results are given in words; binding and its absence hold for the method and conditions named. In cells and extracts the contact can be indirect. Some entries that bind do so weakly or less than the wild type.

Amino acid sequences for entries named in this document (tags omitted).
UniProt P08207: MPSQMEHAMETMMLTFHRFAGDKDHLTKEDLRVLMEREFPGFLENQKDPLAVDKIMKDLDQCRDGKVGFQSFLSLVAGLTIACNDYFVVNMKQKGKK
UniProt P07356: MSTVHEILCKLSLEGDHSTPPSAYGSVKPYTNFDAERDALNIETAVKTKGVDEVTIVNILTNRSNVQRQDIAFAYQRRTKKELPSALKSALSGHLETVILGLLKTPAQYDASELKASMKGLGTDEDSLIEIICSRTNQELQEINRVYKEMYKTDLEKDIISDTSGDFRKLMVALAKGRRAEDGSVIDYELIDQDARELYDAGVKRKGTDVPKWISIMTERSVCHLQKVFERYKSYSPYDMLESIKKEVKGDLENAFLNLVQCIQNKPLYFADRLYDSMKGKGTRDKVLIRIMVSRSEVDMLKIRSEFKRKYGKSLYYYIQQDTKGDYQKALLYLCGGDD

Molecular target: S100A10 (mouse (endogenous in lung tissue of AC70 hACE2 Tg mice)) (UniProt P08207)
Experiment: co-IP; anti-S100A10 antibody [EPR3317] immobilised on AminoLink Plus Coupling Resin; pre-cleared lung tissue lysates of Mock and SARS-CoV-2-infected (4 d.p.i.) AC70 hACE2 Tg mice, incubated overnight at 4°C; blot with anti-ANXA2 antibodies

Question: Annexin A2 (from UniProt P07356 1-339) was tested. Which binding did it give?
Answer: binds
